Results on 5 compounds are retold here after US20250198977A1, “DETECTION METHOD, DRIED ALGAE MANUFACTURING METHOD, DRIED ALGAE, AND DRIED ALGAE QUALITY MANAGEMENT METHOD” (priority 2022, published 2025).

Common to all, as to assay: Detection of chemical substances by delayed luminescence (DFI) of rehydrated L-dried matter
Assay type in all cases: cell-based
Settings in all cases: ** P < 0.01

Series [1] relates to L-dried matter of Synechococcus sp. NIES-969. As for the experimental part:
(§1) Various kinds of the L-dried matter obtained in the above-described cryo vial, and test water (water containing the chemical substances listed below at the concentrations (w/v) shown in Table 7) were prepared.
(§2) (metal mixed solution which was prepared by simulation based on formulation of a rock eluate from a core sample collected during a survey voyage of “Chikyu” by the Japan Agency for Marine-Earth Science and Technology; mainly containing lead and zinc (Yamagishi et al. Ecotoxicology (2018) 27:1303-1309)) • Copper • Zinc • Lead • Arsenic: in NIES-35, NIES-969, and NIES-2885, test water containing As(V) at 1 ppm (w/v) was also used for examination.
(§3) In a case of tests using freshwater algae, distilled water was used as the test water or control water, and in a case of tests using marine algae, filtered and sterilized seawater was used as the test water or control water.
(§4) Using a cuvette as a measurement container, 100 μL of the above-described cell suspension was dried to obtain 1 unit of the L-dried matter, and resuspended (rehydrated) in 3.5 mL of test water or control water.
(§5) After the rehydration, the L-dried matter and the test water or control water were rapidly and thoroughly mixed by pipetting to obtain a measurement sample (measurement object).
(§6) The sample was set in a weak luminescence measurement device (manufactured by Hamamatsu Photonics K.K., weak luminescence coefficient device, Type-7100). After exposure with excitation light from a light source attached to the device, delayed luminescence was measured immediately after a point of time of the rehydration (within 30 seconds), 15 minutes later, 30 minutes later, 60 minutes later, and 90 minutes later. The measurement time for each delayed luminescence was set to 10 seconds.
(§7) The sum of amounts of delayed luminescence (photon count) measured over 10 seconds was calculated and defined as the delayed fluorescence integral (DFI). In addition, for the sample after the rehydration, an absorbance at a wavelength of 600 nm with an optical path length of 1 cm was simultaneously measured. The DFI value per cell number of the L-dried matter was obtained by dividing the DFI by the value (DFI/OD600).

In series [2] the test system is L-dried matter of Cyanobium sp. NIES-981. As for the experimental part:
as §1, §2, §3, §4, §5, §6, §7

For series [3], the system named is L-dried matter of Raphidocelis subcapitata NIES-35. As for the experimental part: as §1, §2, §3, §4, §5, §6, §7
Series [4] relates to L-dried matter of Prochlorococcus sp. NIES-2885. As for the experimental part: as §1, §2, §3, §4, §5, §6, §7

The structures appear in SMILES notation.

With `[Cu+2]` [Cu^2+, Copper], the shortest detection time in series [1] (Cu^2+ 1 ppm) worked out at 15 min; in series [2] (Cu^2+ 1 ppm), 15 min; in series [3] (Cu^2+ 1 ppm) it was 15 min; in series [4] (Cu^2+ 1 ppm), 0 min.
For `CN(C)C(=O)Nc1ccc(Cl)c(Cl)c1` [DCMU, 3-(3,4-dichlorophenyl)-1,1-dimethylurea, reference compound], the shortest detection time in series [1] (DCMU 1 μM) was 0 min; in series [2] (DCMU 1 μM), 0 min; in series [3] (DCMU 1 μM), 15 min; in series [4] (DCMU 1 μM), 0 min.
On to `NO` [HA, Hydroxylamine, reference compound], for which the shortest detection time stood at 0 min in series [1] (HA 50 μM), 0 min in series [2] (HA 50 μM), 15 min in series [3] (HA 50 μM) and 0 min in series [4] (HA 50 μM).
In the case of `[Pb+2]` [Pb^2+, Lead], the shortest detection time in series [1] (Pb^2+ 1 ppm), in series [2] (Pb^2+ 1 ppm), in series [3] (Pb^2+ 1 ppm) and in series [4] (Pb^2+ 1 ppm) was 15 min in each case.
As for `[Zn+2]` [Zn^2+, Zinc], the shortest detection time in series [1] (Zn^2+ 0.5 ppm) amounted to 15 min; in series [1] (Zn^2+ 1 ppm) it was 60 min; in series [2] (Zn^2+ 0.5 ppm), 15 min; in series [2] (Zn^2+ 1 ppm), 15 min; in series [3] (Zn^2+ 0.5 ppm) it was 15 min; in series [3] (Zn^2+ 1 ppm) it was 15 min. The shortest detection time in series [4] (Zn^2+ 0.5 ppm) was 0 min; in series [4] (Zn^2+ 1 ppm), 30 min.
